This is an account of results in article PMC3795256.

The target of assay [1] is T1, FLAG-tagged Prx4 (peroxiredoxin 4) (human), Q13162.
T1 chain: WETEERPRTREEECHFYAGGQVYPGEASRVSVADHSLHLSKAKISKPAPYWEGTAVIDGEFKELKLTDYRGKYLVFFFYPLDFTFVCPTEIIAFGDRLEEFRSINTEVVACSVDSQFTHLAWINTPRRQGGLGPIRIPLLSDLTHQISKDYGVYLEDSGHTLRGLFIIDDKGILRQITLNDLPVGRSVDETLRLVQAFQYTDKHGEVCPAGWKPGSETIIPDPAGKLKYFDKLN
The assay is described as follows: affinity purification with mass spectrometry; FLAG-tagged Prx4 expressed in HEK293 cells, immunoprecipitated with anti-FLAG, eluted with FLAG peptides, digested with Lys-C, direct nano-flow LC-MS/MS. The conditions noted are these: remark: other sources report otherwise.

Assay [2] addresses FLAG-tagged Prx4 (peroxiredoxin 4) (human) (UniProt Q13162). Described as above.

Results are given in words; binding and its absence hold for the method and conditions named. Binding seen in cells or lysates may run through a third protein. Here binding means that the protein was enriched with, or labelled near, the bait; the list need not be complete. For part of these data: Tags and fused reporters may be left off the sequences shown.

B1: ERp72, P13667 21-645 (protein)
chain: VAGAEGPDEDSSNRENAIEDEEEEEEEDDDEEEDDLEVKEENGVLVLNDANFDNFVADKDTVLLEFYAPWCGHCKQFAPEYEKIANILKDKDPPIPVAKIDATSASVLASRFDVSGYPTIKILKKGQAVDYEGSRTQEEIVAKVREVSQPDWTPPPEVTLVLTKENFDEVVNDADIILVEFYAPWCGHCKKLAPEYEKAAKELSKRSPPIPLAKVDATAETDLAKRFDVSGYPTLKIFRKGRPYDYNGPREKYGIVDYMIEQSGPPSKEILTLKQVQEFLKDGDDVIIIGVFKGESDPAYQQYQDAANNLREDYKFHHTFSTEIAKFLKVSQGQLVVMQPEKFQSKYEPRSHMMDVQGSTQDSAIKDFVLKYALPLVGHRKVSNDAKRYTRRPLVVVYYSVDFSFDYRAATQFWRSKVLEVAKDFPEYTFAIADEEDYAGEVKDLGLSESGEDVNAAILDESGKKFAMEPEEFDSDTLREFVTAFKKGKLKPVIKSQPVPKNNKGPVKVVVGKTFDSIVMDPKKDVLIEFYAPWCGHCKQLEPVYNSLAKKYKGQKGLVIAKMDATANDVPSDRYKVEGFPTIYFAPSGDKKNPVKFEGGDRDLEHLSKFIEEHATKLSRTKEEL
For B1, in assay [1], the binding entry is listed as “binds”.

B2: ERp44 (protein, UniProt Q9BS26 30-406)
chain: EITSLDTENIDEILNNADVALVNFYADWCRFSQMLHPIFEEASDVIKEEFPNENQVVFARVDCDQHSDIAQRYRISKYPTLKLFRNGMMMKREYRGQRSVKALADYIRQQKSDPIQEIRDLAEITTLDRSKRNIIGYFEQKDSDNYRVFERVANILHDDCAFLSAFGDVSKPERYSGDNIIYKPPGHSAPDMVYLGAMTNFDVTYNWIQDKCVPLVREITFENGEELTEEGLPFLILFHMKEDTESLEIFQNEVARQLISEKGTINFLHADCDKFRHPLLHIQKTPADCPVIAIDSFRHMYVFGDFKDVLIPGKLKQFVFDLHSGKLHREFHHGPDPTDTAPGEQAQDVASSPPESSFQKLAPSEYRYTLLRDRDEL
As to B2, in assay [2], the binding entry was “binds”.

B3: P5 (protein, UniProt Q15084 20-440)
chain: LYSSSDDVIELTPSNFNREVIQSDSLWLVEFYAPWCGHCQRLTPEWKKAATALKDVVKVGAVDADKHHSLGGQYGVQGFPTIKIFGSNKNRPEDYQGGRTGEAIVDAALSALRQLVKDRLGGRSGGYSSGKQGRSDSSSKKDVIELTDDSFDKNVLDSEDVWMVEFYAPWCGHCKNLEPEWAAAASEVKEQTKGKVKLAAVDATVNQVLASRYGIRGFPTIKIFQKGESPVDYDGGRTRSDIVSRALDLFSDNAPPPELLEIINEDIAKRTCEEHQLCVVAVLPHILDTGAAGRNSYLEVLLKLADKYKKKMWGWLWTEAGAQSELETALGIGGFGYPAMAAINARKMKFALLKGSFSEQGINEFLRELSFGRGSTAPVGGGAFPTIVEREPWDGRDGELPVEDDIDLSDVELDDLGKDEL
Take B3: the binding entry in assay [2] is “binds”.
